For one molecule, binding results are on record in patent US20050026285A1 (Harvard, published 2005).

Assay [1] deals with T1, endogenous TRAF2 of 293T cells (human) (UniProt Q12933).
T1 sequence (looked up): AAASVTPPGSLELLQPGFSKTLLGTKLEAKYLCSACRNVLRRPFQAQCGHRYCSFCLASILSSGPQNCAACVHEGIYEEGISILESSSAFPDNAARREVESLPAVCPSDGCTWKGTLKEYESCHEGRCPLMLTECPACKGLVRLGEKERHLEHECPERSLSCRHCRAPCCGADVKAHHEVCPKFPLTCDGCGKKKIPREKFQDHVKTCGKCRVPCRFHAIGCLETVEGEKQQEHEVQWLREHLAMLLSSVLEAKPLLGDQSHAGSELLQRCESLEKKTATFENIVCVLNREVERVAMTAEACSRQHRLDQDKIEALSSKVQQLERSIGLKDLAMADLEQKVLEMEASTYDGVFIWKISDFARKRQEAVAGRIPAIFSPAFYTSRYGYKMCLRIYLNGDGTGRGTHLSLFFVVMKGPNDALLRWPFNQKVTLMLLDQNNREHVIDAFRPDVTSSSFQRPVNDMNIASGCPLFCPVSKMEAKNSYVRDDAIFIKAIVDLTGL
Put plainly: anti-MYC IP from transfected 293T cells, blot with anti-TRAF antibodies.

Assay [2] concerns the target T1, endogenous TRAF2 of 293T cells (human). Put plainly: anti-MYC IP from transfected 293T cells, blot with anti-TRAF2 mAb.

Results are given in words; binding and its absence hold for the method and conditions named. Some binding calls cover weakened binding; strength is not graded here. Where a sequence is shown, tags or fusion partners need not be part of it.

B1: MYC-tagged KRC tr (KRC amino acids 204-1055 with N-terminal myc epitope tag) (protein, not shown: small tags and cut ends)
chain: PSVLQKHIRSHTGERPYPCGPCGFSFKTKSNLYKHRKSHAHRIKAGLASGMGGEMYPHGLEMERIPGEEFEEPTEGESTDSEEETSATSGHPAELSPRPKQPLLSSGLYSSGSHSSSHERCSLSQSSTAQSLEDPPPFVEPSSEHPLSHKPEDTHTIKQKLALRLSERKKVIDEQAFLSPGSKGSTESGYFSRSESAEQQVSPPNTNAKSYAEIIFGKCGRIGQRTAMLTATSTQPLLPLSTEDKPSLVPLSVPRTQVIEHITKLITINEAVVDTSEIDSVKPRRSSLSRRSSMESPKSSLYREPLSSHSEKTKPEQSLLSLQHPPSTAPPVPLLRSHSMPSAACTISTPHHPFRGSYSFDDHITDSEALSRSSHVFTSHPRMLKPQPAIELPLGGEYSSEEPGPSSKDTASKPSDEVEPKESELTKKTKKGLKTKGVIYECNICGARYKKRDNYEAHKKYYCSELQIAKPISAGTHTSPEAEKSQIEHEPWSQMMHYKLGTTLELTPLRKRRKEKSLGDEEEPPAFESTKSQFGSPGPSDAARNLPLESTKSPAEPSKSVPSLEGPTGFQPRTPKPGSGSESGKERRTTSKEISVIQHTSSFEKSDSLEQPSGLEGEDKPLAQFPSPPPAPHGRSAHSLQPKLVRQPNIQVPEILVTEEPDRPDTEPEPPPKEPEKTEEFQWPQRSQTLAQLPAEKAPPKKKRLRLAEMAQSSGESSFESSVPLSRSPSQESNVSLSGSSRSASFERDDHGKAEAPDPSSDMRPKPLGTHMLTVPSHHPHAREMRRSASEQSPNVSHSAHMTETRSKSFDYGSLSLTGPSAPAPVAPPAGEAPPERRKCFLVRSPSLSRPP
As for B1, the binding result in assay [1] and in assay [2] was “binds” each time.
